Changes are numbered by the printed parent chain. These are yes or no findings as the source states them, for the method shown. Some results given as binding are weak or reduced against the parent protein; the word gives no strength.

From CN113307874A come the findings set out here.

Experiment [1] deals with T1, 人LAG3抗原 (ACRO, Cat.LA3-H5222) (human) (UniProt P18627).
T1 sequence (looked up): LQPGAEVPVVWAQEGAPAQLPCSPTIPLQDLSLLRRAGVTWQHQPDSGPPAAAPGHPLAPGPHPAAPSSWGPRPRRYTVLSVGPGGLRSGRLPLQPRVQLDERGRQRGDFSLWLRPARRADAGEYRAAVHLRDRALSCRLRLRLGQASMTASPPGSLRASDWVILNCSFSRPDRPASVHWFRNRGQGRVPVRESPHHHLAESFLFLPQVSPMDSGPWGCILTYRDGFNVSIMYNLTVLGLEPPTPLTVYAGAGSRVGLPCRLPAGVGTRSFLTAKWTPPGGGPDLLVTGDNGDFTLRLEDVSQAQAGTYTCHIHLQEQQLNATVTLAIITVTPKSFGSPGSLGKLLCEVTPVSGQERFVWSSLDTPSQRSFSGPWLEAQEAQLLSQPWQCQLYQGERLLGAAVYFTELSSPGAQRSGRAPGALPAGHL
Description: indirect ELISA, coated human LAG3. Background: An ELISA detects its analyte on a solid surface through an enzyme-linked reagent.

In experiment [2] the target is T2, 过表达人LAG3抗原的Jurkat/LAG3细胞表面的人LAG3 (human) (UniProt P18627).
T2 sequence (looked up): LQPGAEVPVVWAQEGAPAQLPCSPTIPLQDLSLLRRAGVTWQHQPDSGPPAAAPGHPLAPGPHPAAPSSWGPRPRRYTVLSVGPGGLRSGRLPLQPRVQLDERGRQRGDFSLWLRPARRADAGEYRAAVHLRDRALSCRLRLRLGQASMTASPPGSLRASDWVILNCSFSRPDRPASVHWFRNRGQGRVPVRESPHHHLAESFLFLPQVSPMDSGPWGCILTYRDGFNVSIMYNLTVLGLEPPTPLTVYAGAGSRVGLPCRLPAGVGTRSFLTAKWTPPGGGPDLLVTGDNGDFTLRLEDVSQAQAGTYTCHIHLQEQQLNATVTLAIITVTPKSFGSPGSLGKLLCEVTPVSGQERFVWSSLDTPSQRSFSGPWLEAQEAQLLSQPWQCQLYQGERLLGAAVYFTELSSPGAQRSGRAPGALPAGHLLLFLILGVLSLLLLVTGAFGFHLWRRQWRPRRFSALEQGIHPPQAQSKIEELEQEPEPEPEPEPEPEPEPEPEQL
Description: indirect flow cytometry on Jurkat/LAG3 cells. For orientation: A flow cytometer gives signals particle by particle.

B1: 人源化抗体 hmL4F6 (antibody, V domains shown)
VH: EVQLVQSGAEVKKPGSSVKLSCKALGYRFTDFEVHWVKLTPGQGLEWIGAIHPGSGGTAYNQKFQGRVTLTADKSSSTAYMELSRLRSEDTAVYYCTTYGWNDWGQGTLVTVS
VL: DIQMTQSPSSLSASVGDRVTITCKASQDVGTAVAWYQQKPGKVPKLLISWASTRHTGVPSRFSGSGSGTDFTLTISSLQPEDVADYLCQQYNNFPYTFGGGTKVEIK
For the molecule B1, the binding result in experiment [1] and in experiment [2] was “binds” each time.

B2: 鼠源抗LAG3抗体 mL3B2 (antibody, V domains shown)
VH: EVQLQQSGAELVRPGASVKLSCKALGYRFTDFEVHWVKLTPVHGLEWIGAIHPGSGAIAYNQKVKGKATLTADKSSSTAYMELSVLTSEDSAVYYCTSYGWNDWGQGTTLTVSS
VL: DIEITQSPSSMYASLGERVTITCKASQDINSYLSWFQQKPGKSPKTLIYRANRLVDGVPSRFSGSGSGQDYSLTISSLEYEDMGIYYCLQYDEFPYTFGGGTKLELKR
Take B2: the binding entry in experiment [1] and in experiment [2] was “binds” in each case.

B3: 鼠源抗LAG3抗体 mL4F6 (antibody, V domains shown)
VH: B2 VH with A57G, I58T, V64F, V85R, S98T, T109I
VL: DIFMKQSHKFMSTSVGDRVSITCKASQDVGTAVAWYQQKPGQSPKLLISWASTRHTGVPDRFTGSGSGTDFTLTITNVQSEDLADYLCQQYNNFPYTFGGGTKLEIKR
In the case of B3, the binding result in experiment [1] and in experiment [2] was “binds” throughout.
